From paper PMC11130794 come the findings set out here.

Results are given in words; binding and its absence hold for the method and conditions named. Binding seen in cells or lysates may run through a third protein.

The experiment has as its target T1, TRMT112 (human (endogenous in U2OS)) (UniProt Q9UI30).
T1 sequence: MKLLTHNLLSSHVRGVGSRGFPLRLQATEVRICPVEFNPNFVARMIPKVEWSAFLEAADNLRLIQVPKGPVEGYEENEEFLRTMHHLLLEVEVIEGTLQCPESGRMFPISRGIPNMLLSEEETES
Description: co-IP; Protein G beads with anti-TRMT112 (sc-398481) in U2OS lysate (mitotic by the results), IP buffer 10 mM Tris pH 7.5, 100 mM KCl, 2 mM MgCl2, 1 mM DTT, 0.5% NP-40, 4 °C overnight; immunoblot with N6AMT1 antibody I (CQA1550).

B1: Aurora kinase A (protein, UniProt O14965 1-403)
chain: MDRSKENCISGPVKATAPVGGPKRVLVTQQFPCQNPLPVNSGQAQRVLCPSNSSQRIPLQAQKLVSSHKPVQNQKQKQLQATSVPHPVSRPLNNTQKSKQPLPSAPENNPEEELASKQKNEESKKRQWALEDFEIGRPLGKGKFGNVYLAREKQSKFILALKVLFKAQLEKAGVEHQLRREVEIQSHLRHPNILRLYGYFHDATRVYLILEYAPLGTVYRELQKLSKFDEQRTATYITELANALSYCHSKRVIHRDIKPENLLLGSAGELKIADFGWSVHAPSSRRTTLCGTLDYLPPEMIEGRMHDEKVDLWSLGVLCYEFLVGKPPFEANTYQETYKRISRVEFTFPDFVTEGARDLISRLLKHNPSQRPMLREVLEHPWITANSSKPSNCQNKESASKQS
With B1, the binding entry is “no binding”.
